{"source": "patent US20050233970A1", "about": "“Methods for treating long QT syndrome” (priority 2004, published 2005)", "origin": "cited, not measured here", "test_system": "QT interval", "conditions": "literature (Pratt et al. 1996, 1999); cited from earlier work"}
{"compound": "CC(C)(C(=O)O)c1ccc(C(O)CCCN2CCC(C(O)(c3ccccc3)c3ccccc3)CC2)cc1", "note": "(stereo not shown) [fexofenadine]", "values": [{"measurement": "effect on QT interval / QTc", "result": "no effect"}]}
